From patent US20220033407A1, “N-(pyridin-2-ylsulfonyl)cyclopropanecarboxamide Derivatives and their Use in the Treatment of Disease” (NOVARTIS AG, priority 2018, published 2022)
The match of structure and compound is tentative.

Amino acid sequences for entries named in this document (tags omitted). Chains listed by the source or under a name are the forms on record and can include a tag or linker.
UniProt P13569, with tags, fused parts or gaps DEL508-508: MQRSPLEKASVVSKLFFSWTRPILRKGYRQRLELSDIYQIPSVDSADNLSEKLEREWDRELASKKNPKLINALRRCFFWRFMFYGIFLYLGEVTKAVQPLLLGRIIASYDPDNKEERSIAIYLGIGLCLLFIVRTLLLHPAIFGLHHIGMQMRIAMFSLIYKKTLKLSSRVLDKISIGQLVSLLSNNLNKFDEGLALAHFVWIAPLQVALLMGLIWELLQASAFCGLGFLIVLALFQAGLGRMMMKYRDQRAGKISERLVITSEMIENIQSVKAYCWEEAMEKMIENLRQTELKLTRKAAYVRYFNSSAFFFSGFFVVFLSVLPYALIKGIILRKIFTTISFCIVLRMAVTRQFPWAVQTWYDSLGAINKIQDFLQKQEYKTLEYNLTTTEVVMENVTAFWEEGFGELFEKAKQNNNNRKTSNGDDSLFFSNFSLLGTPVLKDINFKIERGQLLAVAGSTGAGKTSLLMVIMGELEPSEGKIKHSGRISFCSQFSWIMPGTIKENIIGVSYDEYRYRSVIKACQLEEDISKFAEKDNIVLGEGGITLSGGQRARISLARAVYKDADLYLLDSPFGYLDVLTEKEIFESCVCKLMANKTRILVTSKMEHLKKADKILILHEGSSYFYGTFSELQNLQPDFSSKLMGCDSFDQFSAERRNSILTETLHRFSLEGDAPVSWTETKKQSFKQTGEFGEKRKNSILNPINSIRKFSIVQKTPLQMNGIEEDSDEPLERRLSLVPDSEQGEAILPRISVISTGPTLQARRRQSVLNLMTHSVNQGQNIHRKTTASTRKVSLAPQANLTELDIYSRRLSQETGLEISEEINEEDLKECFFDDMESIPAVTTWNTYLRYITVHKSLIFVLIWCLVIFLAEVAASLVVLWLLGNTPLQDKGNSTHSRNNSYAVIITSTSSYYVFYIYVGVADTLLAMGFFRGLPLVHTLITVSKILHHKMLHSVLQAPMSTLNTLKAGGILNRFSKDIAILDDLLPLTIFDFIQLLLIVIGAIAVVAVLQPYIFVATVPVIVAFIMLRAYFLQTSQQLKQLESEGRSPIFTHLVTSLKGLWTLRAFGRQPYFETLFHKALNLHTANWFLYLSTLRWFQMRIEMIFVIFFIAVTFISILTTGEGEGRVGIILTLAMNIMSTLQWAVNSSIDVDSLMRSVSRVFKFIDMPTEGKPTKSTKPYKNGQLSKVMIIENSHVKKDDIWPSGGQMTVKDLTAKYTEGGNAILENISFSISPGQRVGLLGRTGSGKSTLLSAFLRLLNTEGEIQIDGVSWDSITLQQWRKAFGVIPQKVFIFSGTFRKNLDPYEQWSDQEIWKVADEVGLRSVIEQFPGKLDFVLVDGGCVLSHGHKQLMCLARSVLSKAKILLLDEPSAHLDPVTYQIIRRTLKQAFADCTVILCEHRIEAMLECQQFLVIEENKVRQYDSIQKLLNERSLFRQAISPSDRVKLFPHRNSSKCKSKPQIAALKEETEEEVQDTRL

Biological target: delF508-CFTR-HRP (Homo sapiens, UniProt P13569, DEL508-508)
Assay: Measurement of delF508-CFTR-HRP surface expression in CFBE41o- cells (HRP luminescence);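 as to DelF508-CFTR-HRP Amax %: percent efficacy relative to a reference CFTR corrector compound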

DelF508-CFTR-HRP Amax %: 551.3%
EC50 (read-out: DelF508-CFTR-HRP EC50, mean of at least two replicates): 600 nM
Compound: O=C(NS(=O)(=O)c1cccc(N2CC[C@H](O)C2)n1)C1(Oc2cc(Cl)ccc2N2CCC3(CC2)CC3)CC1 [Example 9-9, (S)-1-(5-Chloro-2-(6-azaspiro[2.5]octan-6-yl)phenoxy)-N-((6-(3-hydroxypyrrolidin-1-yl)pyridin-2-yl)sulfonyl)cyclopropanecarboxamide]
